Some of the results follow.
Legend:
Test in all cases: log2 fold change, soluble protein after heating vs DMSO (PISA); higher = thermal stabilisation; K562 cells, 10 uM, 30 min; active = over 0.2 and 3.5 SD of the protein, either way, in both replicates (recomputed)
[1] = compound: CS(=O)(=O)c1ccc(-c2cnc(N)c(C(=O)Nc3ccccc3)n2)cc1
Method in brief: (§1)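 Quantification of soluble protein used TMTpro 16plex LC-MS/MS, with channel sums equalised. Samples were the supernatant after 21,000xg for 90 min of pooled aliquots from K562 cells (2×10^6 cells/mL) treated with 10 μM compound for 30 min, heated for 3 min over 48°C-58°C, and extracted in PBS with 0.5% NP-40 at 4°C. Values, from duplicates, describe thermal stability against control samples on a log2 fold-change scale.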

Chains of the proteins cited; added tags and fusions are not shown. Lines headed by an entry give the natural chain unless they say otherwise; changes in a name come on top.
UniProt P42892: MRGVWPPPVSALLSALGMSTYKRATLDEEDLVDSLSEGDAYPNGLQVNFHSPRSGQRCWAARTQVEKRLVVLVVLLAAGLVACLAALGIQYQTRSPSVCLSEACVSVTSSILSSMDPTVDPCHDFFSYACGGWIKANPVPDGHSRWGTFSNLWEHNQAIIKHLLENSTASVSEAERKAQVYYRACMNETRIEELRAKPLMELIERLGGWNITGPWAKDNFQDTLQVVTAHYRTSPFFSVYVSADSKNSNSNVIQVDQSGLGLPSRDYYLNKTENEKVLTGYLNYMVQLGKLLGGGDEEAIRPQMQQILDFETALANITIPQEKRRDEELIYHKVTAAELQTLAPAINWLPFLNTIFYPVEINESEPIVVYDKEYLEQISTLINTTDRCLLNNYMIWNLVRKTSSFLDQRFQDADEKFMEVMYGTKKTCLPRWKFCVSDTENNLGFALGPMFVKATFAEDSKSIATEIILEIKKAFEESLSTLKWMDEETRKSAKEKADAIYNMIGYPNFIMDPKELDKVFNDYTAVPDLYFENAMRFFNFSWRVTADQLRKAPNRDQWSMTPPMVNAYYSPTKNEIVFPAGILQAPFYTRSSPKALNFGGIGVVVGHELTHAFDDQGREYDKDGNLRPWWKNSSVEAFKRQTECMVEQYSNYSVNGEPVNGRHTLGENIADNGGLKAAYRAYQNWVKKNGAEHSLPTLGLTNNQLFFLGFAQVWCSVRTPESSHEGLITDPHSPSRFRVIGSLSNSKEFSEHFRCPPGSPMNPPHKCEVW
UniProt Q14126: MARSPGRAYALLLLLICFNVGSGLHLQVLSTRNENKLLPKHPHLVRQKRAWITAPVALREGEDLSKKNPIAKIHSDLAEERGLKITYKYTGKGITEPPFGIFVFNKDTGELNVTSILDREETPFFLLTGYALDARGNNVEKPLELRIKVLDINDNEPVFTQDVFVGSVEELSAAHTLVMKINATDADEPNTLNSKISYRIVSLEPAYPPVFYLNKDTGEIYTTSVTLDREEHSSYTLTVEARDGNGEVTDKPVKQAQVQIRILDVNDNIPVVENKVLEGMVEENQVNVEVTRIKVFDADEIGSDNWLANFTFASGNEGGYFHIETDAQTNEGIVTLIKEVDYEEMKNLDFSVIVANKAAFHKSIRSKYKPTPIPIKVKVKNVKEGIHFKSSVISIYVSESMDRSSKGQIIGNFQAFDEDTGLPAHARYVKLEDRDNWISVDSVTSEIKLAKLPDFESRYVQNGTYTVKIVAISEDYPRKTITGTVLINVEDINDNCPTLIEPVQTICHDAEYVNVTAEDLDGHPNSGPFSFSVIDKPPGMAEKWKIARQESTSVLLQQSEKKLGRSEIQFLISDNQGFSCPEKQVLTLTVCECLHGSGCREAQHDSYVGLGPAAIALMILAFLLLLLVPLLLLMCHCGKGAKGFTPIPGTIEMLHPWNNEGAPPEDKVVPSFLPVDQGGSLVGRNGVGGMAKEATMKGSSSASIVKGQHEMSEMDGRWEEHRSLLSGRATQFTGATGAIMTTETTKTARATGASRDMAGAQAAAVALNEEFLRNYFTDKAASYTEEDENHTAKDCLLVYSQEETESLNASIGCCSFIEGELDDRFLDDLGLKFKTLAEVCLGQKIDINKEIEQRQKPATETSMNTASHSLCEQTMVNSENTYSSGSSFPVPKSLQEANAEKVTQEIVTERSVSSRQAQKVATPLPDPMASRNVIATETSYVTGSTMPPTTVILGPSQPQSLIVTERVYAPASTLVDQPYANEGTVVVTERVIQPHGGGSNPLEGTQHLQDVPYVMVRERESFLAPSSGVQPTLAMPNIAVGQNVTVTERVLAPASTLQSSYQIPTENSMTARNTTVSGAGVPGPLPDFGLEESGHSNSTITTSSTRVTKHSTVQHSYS
UniProt Q9NP97, whole entry, looked up: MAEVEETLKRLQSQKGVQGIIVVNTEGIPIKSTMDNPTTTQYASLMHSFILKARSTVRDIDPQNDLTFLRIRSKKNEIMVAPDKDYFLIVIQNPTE
UniProt Q5JSL3: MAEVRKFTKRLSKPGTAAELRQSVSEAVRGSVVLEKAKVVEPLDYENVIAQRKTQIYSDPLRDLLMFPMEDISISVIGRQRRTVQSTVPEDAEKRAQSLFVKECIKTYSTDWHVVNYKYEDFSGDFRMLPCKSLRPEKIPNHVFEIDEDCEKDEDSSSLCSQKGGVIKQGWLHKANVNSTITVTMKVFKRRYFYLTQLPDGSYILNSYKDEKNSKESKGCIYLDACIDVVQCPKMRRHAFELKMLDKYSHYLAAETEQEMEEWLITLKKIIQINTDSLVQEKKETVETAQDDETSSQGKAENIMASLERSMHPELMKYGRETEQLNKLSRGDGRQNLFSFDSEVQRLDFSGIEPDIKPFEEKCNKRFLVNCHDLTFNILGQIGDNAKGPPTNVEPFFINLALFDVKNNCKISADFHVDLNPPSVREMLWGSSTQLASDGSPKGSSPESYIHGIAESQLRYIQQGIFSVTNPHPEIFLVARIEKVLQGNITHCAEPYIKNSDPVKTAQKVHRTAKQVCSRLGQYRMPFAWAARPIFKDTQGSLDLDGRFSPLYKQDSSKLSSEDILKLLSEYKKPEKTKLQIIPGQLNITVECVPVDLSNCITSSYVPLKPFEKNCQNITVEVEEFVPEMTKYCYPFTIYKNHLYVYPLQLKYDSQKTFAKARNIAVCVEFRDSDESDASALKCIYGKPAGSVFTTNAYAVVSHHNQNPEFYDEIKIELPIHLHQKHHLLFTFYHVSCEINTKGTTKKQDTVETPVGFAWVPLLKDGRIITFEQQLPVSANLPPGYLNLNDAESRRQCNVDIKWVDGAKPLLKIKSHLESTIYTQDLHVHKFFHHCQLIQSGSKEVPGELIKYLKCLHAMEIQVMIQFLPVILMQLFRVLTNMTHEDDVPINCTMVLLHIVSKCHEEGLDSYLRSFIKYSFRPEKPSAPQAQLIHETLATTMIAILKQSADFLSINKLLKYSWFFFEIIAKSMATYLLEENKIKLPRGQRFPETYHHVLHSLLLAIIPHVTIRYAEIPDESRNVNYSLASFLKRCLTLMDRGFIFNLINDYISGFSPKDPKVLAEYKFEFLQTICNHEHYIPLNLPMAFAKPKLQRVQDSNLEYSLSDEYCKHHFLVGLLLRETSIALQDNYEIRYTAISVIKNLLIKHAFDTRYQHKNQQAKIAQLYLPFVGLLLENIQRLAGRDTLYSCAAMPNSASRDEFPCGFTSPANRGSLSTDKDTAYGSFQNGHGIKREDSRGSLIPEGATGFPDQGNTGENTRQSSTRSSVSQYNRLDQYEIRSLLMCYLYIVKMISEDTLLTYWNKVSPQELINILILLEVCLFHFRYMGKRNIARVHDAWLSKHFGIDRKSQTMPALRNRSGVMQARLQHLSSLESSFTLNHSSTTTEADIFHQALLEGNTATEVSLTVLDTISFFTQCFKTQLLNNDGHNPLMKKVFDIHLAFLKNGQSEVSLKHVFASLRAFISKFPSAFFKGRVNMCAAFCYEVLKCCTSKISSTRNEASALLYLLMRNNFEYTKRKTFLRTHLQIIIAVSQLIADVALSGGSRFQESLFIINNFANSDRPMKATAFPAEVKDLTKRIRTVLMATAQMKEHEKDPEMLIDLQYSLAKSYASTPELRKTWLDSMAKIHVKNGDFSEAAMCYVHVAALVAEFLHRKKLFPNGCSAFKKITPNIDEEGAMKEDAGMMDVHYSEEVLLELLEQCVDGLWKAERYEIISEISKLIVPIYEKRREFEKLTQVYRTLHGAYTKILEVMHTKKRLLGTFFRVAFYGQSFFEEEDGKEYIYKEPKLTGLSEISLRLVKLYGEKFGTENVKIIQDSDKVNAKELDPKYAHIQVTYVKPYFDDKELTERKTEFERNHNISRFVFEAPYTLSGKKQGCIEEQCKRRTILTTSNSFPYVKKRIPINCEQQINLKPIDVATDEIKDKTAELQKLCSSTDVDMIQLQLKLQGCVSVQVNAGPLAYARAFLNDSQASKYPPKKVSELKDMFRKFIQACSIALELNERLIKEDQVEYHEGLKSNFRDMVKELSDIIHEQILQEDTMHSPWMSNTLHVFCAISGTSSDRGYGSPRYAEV
UniProt Q9NVM6: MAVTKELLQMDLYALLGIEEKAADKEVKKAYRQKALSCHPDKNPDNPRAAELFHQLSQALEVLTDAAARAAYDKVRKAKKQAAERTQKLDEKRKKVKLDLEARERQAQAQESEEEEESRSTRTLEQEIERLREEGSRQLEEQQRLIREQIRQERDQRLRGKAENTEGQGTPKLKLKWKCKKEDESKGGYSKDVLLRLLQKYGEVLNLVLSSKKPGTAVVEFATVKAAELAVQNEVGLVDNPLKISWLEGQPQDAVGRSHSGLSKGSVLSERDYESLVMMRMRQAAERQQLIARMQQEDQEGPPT
UniProt Q96EY1: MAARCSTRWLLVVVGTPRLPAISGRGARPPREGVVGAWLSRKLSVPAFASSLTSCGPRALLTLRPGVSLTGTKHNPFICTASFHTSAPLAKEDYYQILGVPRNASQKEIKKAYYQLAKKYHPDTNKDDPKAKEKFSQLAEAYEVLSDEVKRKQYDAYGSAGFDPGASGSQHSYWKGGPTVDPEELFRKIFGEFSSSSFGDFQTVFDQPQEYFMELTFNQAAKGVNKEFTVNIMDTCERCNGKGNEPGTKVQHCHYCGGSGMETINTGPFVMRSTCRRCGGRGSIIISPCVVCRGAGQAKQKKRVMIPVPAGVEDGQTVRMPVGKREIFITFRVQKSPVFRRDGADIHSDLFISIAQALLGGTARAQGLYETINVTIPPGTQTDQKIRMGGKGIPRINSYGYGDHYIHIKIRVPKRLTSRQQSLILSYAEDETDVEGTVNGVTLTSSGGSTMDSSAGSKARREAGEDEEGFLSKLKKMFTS
UniProt O60762: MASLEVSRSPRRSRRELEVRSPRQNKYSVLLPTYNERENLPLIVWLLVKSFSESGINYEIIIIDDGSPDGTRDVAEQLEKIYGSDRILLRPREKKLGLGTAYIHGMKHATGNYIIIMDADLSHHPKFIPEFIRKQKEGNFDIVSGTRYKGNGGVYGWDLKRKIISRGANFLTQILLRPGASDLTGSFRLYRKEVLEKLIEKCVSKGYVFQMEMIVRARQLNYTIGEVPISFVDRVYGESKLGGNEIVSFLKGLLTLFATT
UniProt Q9NY33: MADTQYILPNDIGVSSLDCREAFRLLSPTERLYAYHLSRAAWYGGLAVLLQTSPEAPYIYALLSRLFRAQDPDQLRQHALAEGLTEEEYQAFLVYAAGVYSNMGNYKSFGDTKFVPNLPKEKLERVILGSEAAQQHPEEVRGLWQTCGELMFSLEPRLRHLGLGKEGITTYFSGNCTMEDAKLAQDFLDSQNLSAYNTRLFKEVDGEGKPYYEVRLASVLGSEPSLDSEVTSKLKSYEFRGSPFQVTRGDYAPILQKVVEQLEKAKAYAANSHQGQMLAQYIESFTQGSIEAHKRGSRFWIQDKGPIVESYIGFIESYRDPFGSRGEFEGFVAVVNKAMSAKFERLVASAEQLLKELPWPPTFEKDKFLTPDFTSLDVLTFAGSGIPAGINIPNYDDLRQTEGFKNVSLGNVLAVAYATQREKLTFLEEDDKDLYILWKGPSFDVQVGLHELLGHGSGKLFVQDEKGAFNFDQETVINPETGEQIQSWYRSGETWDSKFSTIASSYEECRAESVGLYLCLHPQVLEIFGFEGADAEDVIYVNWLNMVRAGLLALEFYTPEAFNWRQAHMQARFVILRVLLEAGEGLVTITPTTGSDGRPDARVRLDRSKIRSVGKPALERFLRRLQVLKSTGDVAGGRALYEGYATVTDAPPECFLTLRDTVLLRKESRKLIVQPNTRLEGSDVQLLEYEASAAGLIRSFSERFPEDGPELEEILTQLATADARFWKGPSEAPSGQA
UniProt Q96FJ2, whole entry, looked up: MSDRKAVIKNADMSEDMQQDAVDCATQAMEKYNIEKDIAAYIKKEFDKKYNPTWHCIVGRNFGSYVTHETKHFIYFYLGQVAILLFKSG
UniProt O95905: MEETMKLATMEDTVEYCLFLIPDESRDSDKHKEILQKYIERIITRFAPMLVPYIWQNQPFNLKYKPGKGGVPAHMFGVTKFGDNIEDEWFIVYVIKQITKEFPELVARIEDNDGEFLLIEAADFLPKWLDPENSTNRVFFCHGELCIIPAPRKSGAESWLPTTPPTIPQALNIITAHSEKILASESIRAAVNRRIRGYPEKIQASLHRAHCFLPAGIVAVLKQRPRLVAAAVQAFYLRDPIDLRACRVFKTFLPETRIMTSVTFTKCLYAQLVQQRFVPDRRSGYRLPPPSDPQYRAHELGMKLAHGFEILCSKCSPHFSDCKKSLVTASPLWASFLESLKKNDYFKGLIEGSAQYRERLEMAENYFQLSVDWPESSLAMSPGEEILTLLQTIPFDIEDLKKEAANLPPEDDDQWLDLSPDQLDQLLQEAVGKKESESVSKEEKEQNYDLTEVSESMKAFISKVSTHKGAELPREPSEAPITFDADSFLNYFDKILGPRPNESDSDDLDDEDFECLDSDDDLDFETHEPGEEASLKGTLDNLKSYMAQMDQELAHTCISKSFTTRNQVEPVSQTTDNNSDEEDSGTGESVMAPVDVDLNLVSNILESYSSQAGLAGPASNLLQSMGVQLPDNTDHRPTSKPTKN

crizotinib = compound: C[C@@H](Oc1cc(-c2cnn(C3CCNCC3)c2)cnc1N)c1c(Cl)ccc(F)c1Cl [crizotinib]
Method in brief: as §1

[2] = compound: C[C@@H]1COCCN1C2=NC(=NC(=C2)C3(CC3)S(=O)(=O)C)C4=C5C=CNC5=CC=C4
Method in brief: as §1

[3] = compound: C[C@H](C1=CC=C(C=C1)C(=O)NC2=C3C=CNC3=NC=C2)N
Method in brief: as §1

duvelisib = compound: C[C@H](Nc1ncnc2nc[nH]c12)c1cc2cccc(Cl)c2c(=O)n1-c1ccccc1 [duvelisib]
Method in brief: as §1

gandotinib = compound: Cc1cc(Nc2cc(CN3CCOCC3)c3nc(C)c(Cc4ccc(Cl)cc4F)n3n2)n[nH]1 [gandotinib]
Method in brief: as §1

tozasertib = compound: Cc1cc(Nc2cc(N3CCN(C)CC3)nc(Sc3ccc(NC(=O)C4CC4)cc3)n2)n[nH]1 [tozasertib]
Method in brief: as §1

[4] = compound: Cc1cc(SCc2sc(-c3ccc(C(F)(F)F)cc3)nc2C)ccc1OCC(=O)O
Method in brief: as §1

doramapimod = compound: Cc1ccc(-n2nc(C(C)(C)C)cc2NC(=O)Nc2ccc(OCCN3CCOCC3)c3ccccc23)cc1 [doramapimod]
Method in brief: as §1

ispinesib = compound: Cc1ccc(C(=O)N(CCCN)[C@@H](c2nc3cc(Cl)ccc3c(=O)n2Cc2ccccc2)C(C)C)cc1 [ispinesib]
Method in brief: as §1

bafetinib = compound: Cc1ccc(NC(=O)c2ccc(CN3CC[C@H](N(C)C)C3)c(C(F)(F)F)c2)cc1Nc1nccc(-c2cncnc2)n1 [bafetinib]
Method in brief: as §1

[5] = compound: Cc1cccc(CC(=O)N2CCc3c2ccc(-c2cn(C)c4ncnc(N)c24)c3F)n1
Method in brief: as §1

nilotinib = compound: Cc1cn(-c2cc(NC(=O)c3ccc(C)c(Nc4nccc(-c5cccnc5)n4)c3)cc(C(F)(F)F)c2)cn1 [nilotinib]
Method in brief: as §1

[6] = compound: Cc1nc(Nc2n[nH]c3c2CN(C(=O)N[C@H](CN(C)C)c2ccccc2)C3(C)C)c2sccc2n1
Method in brief: as §1

dasatinib = compound: Cc1nc(Nc2ncc(C(=O)Nc3c(C)cccc3Cl)s2)cc(N2CCN(CCO)CC2)n1 [dasatinib]
Method in brief: as §1

[7] = compound: Cc1ncc(-c2ccnc(Nc3ccc(S(C)(=O)=O)cc3)n2)n1C(C)C
Method in brief: as §1

[8] = compound: Cn1cc(-c2ccc3c(c2)CCN3C(=O)Cc2cccc(C(F)(F)F)c2)c2c(N)ncnc21
Method in brief: as §1

[9] = compound: Cn1cc(-c2ccc3nnc(C(F)(F)c4ccc5ncccc5c4)n3n2)cn1
Method in brief: as §1

tipifarnib = compound: Cn1cncc1[C@@](N)(c1ccc(Cl)cc1)c1ccc2c(c1)c(-c1cccc(Cl)c1)cc(=O)n2C [tipifarnib]
Method in brief: as §1

mubritinib = compound: FC(F)(F)c1ccc(/C=C/c2nc(COc3ccc(CCCCn4ccnn4)cc3)co2)cc1 [mubritinib]
Method in brief: as §1

Measured: log2 fold change

ECE1 (UniProt P42892)
inactive: [1] -0.027 | crizotinib -0.086 | [2] -0.165 | [3] -0.014 | duvelisib -0.204 | gandotinib -0.193 | tozasertib 0.004 | [4] 0.064 | doramapimod -0.106 | ispinesib -0.053 | bafetinib -0.244 | [5] 0.086 | nilotinib -0.06 | [6] -0.059 | dasatinib -0.068 | [7] -0.1 | [8] 0.023 | [9] 0.006 | tipifarnib -0.023 | mubritinib 0.07

EDF1 (UniProt O60869)
inactive: [1] -0.024 | crizotinib 0.011 | [2] -0.058 | [3] -0.067 | duvelisib 0.024 | gandotinib -0.045 | tozasertib -0.047 | [4] -0.022 | doramapimod -0.053 | ispinesib 0.022 | bafetinib -0.03 | [5] -0.012 | nilotinib -0.046 | [6] 0.031 | dasatinib 0.062 | [7] -0.031 | [8] 0.038 | [9] 0.072 | tipifarnib -0.002 | mubritinib 0.01

DSG2 (UniProt Q14126)
inactive: [1] 0.039 | crizotinib -0.046 | [2] -0.019 | [3] -0.079 | duvelisib 0.038 | gandotinib 0.008 | tozasertib -0.033 | [4] -0.016 | doramapimod 0.032 | ispinesib -0.078 | bafetinib -0.008 | [5] -0.012 | nilotinib 0.062 | [6] -0.088 | dasatinib 0.017 | [7] -0.005 | [8] 0.046 | [9] -0.004 | tipifarnib 0.044 | mubritinib 0.009

DYNLRB1 (UniProt Q9NP97)
inactive: [1] 0.03 | crizotinib 0.087 | [2] 0.108 | [3] -0.108 | duvelisib 0.065 | gandotinib 0.089 | tozasertib 0.008 | [4] -0.029 | doramapimod 0.025 | ispinesib 0.079 | bafetinib 0.031 | [5] -0.09 | nilotinib 0.051 | [6] 0.014 | dasatinib 0.043 | [7] 0.009 | [8] 0.1 | [9] 0.083 | tipifarnib -0.036 | mubritinib 0.037

DOCK11 (UniProt Q5JSL3)
inactive: [1] 0.028 | crizotinib -0.024 | [2] 0.035 | [3] 0.058 | duvelisib 0.035 | gandotinib -0.044 | tozasertib -0.011 | [4] 0.105 | doramapimod 0.013 | ispinesib -0.07 | bafetinib 0.004 | [5] 0.02 | nilotinib -0.003 | [6] 0.021 | dasatinib -0.151 | [7] 0.038 | [8] -0.024 | [9] 0.008 | tipifarnib -0.081 | mubritinib 0.119

DNAJC17 (UniProt Q9NVM6)
inactive: [1] 0.011 | crizotinib 0.091 | [2] 0.026 | [3] 0.016 | duvelisib 0.096 | gandotinib -0.123 | tozasertib -0.03 | [4] 0.047 | doramapimod -0.03 | ispinesib 0.059 | bafetinib -0.11 | [5] 0.011 | nilotinib 0.027 | [6] -0.043 | dasatinib -0.11 | [7] 0.029 | [8] 0.027 | [9] -0.003 | tipifarnib 0.019 | mubritinib 0.035

DPP7 (UniProt Q9UHL4)
inactive: [1] -0.021 | crizotinib -0.029 | [2] -0.002 | [3] -0.016 | duvelisib 0.001 | gandotinib -0.017 | tozasertib -0.036 | [4] -0.052 | doramapimod -0.01 | ispinesib 0.078 | bafetinib -0.13 | [5] -0.02 | nilotinib 0.004 | [6] -0.02 | dasatinib 0.063 | [7] -0.024 | [8] -0.016 | [9] -0.018 | tipifarnib 0.04 | mubritinib 0.013

DNAJA3 (UniProt Q96EY1)
inactive: [1] -0.003 | crizotinib 0.04 | [2] -0.048 | [3] 0.069 | duvelisib 0.082 | gandotinib 0.086 | tozasertib -0.015 | [4] 0.065 | doramapimod -0.001 | ispinesib -0.03 | bafetinib -0.012 | [5] -0.041 | nilotinib -0.08 | [6] -0.001 | dasatinib -0.048 | [7] 0.057 | [8] -0.006 | [9] 0.006 | tipifarnib -0.031 | mubritinib -0.02

DPM1 (UniProt O60762)
inactive: [1] 0.079 | crizotinib -0.053 | [2] 0.059 | [3] -0.014 | duvelisib 0.001 | gandotinib -0.065 | tozasertib 0.008 | [4] -0.017 | doramapimod -0.031 | ispinesib -0.061 | bafetinib -0.024 | [5] -0.003 | nilotinib 0.065 | [6] 0.081 | dasatinib 0.036 | [7] -0.037 | [8] 0.002 | [9] 0.002 | tipifarnib -0.008 | mubritinib 0.012

EBP (UniProt Q15125)
inactive: [1] -0.022 | crizotinib 0.063 | [2] 0.34 | [3] -0.088 | duvelisib -0.006 | gandotinib 0.018 | tozasertib 0.043 | [4] 0.044 | doramapimod -0.014 | ispinesib 0.235 | bafetinib -0.018 | [5] -0.011 | nilotinib -0.064 | [6] 0.07 | dasatinib 0.004 | [7] -0.028 | [8] 0.063 | [9] 0.1 | tipifarnib 0.005 | mubritinib -0.044

DPH6 (UniProt Q7L8W6)
inactive: [1] -0.004 | crizotinib -0.137 | [2] 0.056 | [3] 0.006 | duvelisib 0.009 | gandotinib -0.039 | tozasertib -0.036 | [4] 0.07 | doramapimod 0.004 | ispinesib -0.081 | bafetinib -0.032 | [5] 0.168 | nilotinib -0.059 | [6] -0.008 | dasatinib -0.15 | [7] 0.005 | [8] 0.024 | [9] 0.002 | tipifarnib -0.057 | mubritinib 0.027

Quoted at random: two records from the list.
ECE1 (UniProt P42892)
inactive: [1] -0.027 | crizotinib -0.086 | [2] -0.165 | [3] -0.014 | duvelisib -0.204 | gandotinib -0.193 | tozasertib 0.004 | [4] 0.064 | doramapimod -0.106 | ispinesib -0.053 | bafetinib -0.244 | [5] 0.086 | nilotinib -0.06 | [6] -0.059 | dasatinib -0.068 | [7] -0.1 | [8] 0.023 | [9] 0.006 | tipifarnib -0.023 | mubritinib 0.07

DNAJA3 (UniProt Q96EY1)
inactive: [1] -0.003 | crizotinib 0.04 | [2] -0.048 | [3] 0.069 | duvelisib 0.082 | gandotinib 0.086 | tozasertib -0.015 | [4] 0.065 | doramapimod -0.001 | ispinesib -0.03 | bafetinib -0.012 | [5] -0.041 | nilotinib -0.08 | [6] -0.001 | dasatinib -0.048 | [7] 0.057 | [8] -0.006 | [9] 0.006 | tipifarnib -0.031 | mubritinib -0.02

Following part.

DNAJC13 (UniProt O75165)
inactive: [1] -0.028 | crizotinib 0.013 | [2] 0.004 | [3] 0.082 | duvelisib 0 | gandotinib -0.08 | tozasertib 0.02 | [4] 0.015 | doramapimod 0.005 | ispinesib -0.266 | bafetinib -0.027 | [5] 0.098 | nilotinib -0.146 | [6] -0.134 | dasatinib -0.105 | [7] 0.122 | [8] -0.017 | [9] -0.068 | tipifarnib 0.019 | mubritinib 0.104

DPP3 (UniProt Q9NY33)
inactive: [1] 0.032 | crizotinib -0.133 | [2] 0.126 | [3] -0.026 | duvelisib 0.037 | gandotinib -0.157 | tozasertib -0.032 | [4] 0 | doramapimod -0.019 | ispinesib -0.044 | bafetinib -0.029 | [5] 0.012 | nilotinib -0.035 | [6] 0.012 | dasatinib -0.095 | [7] -0.056 | [8] 0.068 | [9] 0.034 | tipifarnib -0.097 | mubritinib 0.082

DYNLL2 (UniProt Q96FJ2)
inactive: [1] 0.068 | crizotinib 0.162 | [2] 0.075 | [3] -0.093 | duvelisib 0.036 | gandotinib 0.095 | tozasertib 0.011 | [4] 0.037 | doramapimod -0.106 | ispinesib 0.043 | bafetinib -0.047 | [5] -0.03 | nilotinib 0.008 | [6] -0.044 | dasatinib 0.023 | [7] 0.013 | [8] 0.214 | [9] 0.041 | tipifarnib -0.228 | mubritinib 0.027

DTL (UniProt Q9NZJ0)
inactive: [1] 0 | crizotinib 0.066 | [2] 0.005 | [3] -0.049 | duvelisib -0.002 | gandotinib 0.016 | tozasertib 0.01 | [4] 0.099 | doramapimod 0.056 | ispinesib -0.012 | bafetinib 0.117 | [5] -0.072 | nilotinib 0.002 | [6] 0.036 | dasatinib -0.003 | [7] -0.238 | [8] -0.043 | [9] 0.012 | tipifarnib -0.022 | mubritinib 0.137

ECD isoform 3 (UniProt O95905)
inactive: [1] -0.015 | crizotinib -0.114 | [2] 0.032 | [3] 0.355 | duvelisib -0.123 | gandotinib 0.062 | tozasertib 0.083 | [4] 0.145 | doramapimod 0.157 | ispinesib -0.166 | bafetinib 0.025 | [5] 0.037 | nilotinib 0.13 | [6] -0.039 | dasatinib -0.18 | [7] -0.103 | [8] -0.015 | [9] -0.067 | tipifarnib -0.08 | mubritinib 0.033
